Reference: patent US8420776
No constants are given. Whether binding was seen depends on the method and setting. Binding seen in cells or lysates may run through a third protein. Some results given as binding are weak or reduced against the parent protein; the word gives no strength. Tags and fused reporters may be left off the sequences shown.

Sequences of proteins named here, by UniProt entry; tags and fusion partners are left off. A change or cut given only in a name is not applied to a line headed by its entry.
UniProt P60604: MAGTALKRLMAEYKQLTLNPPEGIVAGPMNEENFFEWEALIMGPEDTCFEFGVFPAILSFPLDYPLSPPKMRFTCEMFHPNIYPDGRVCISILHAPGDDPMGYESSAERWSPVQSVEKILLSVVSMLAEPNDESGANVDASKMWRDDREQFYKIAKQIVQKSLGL

How the values were obtained:
[1] = molecular target: Ube2G2/MmUbc7, in vitro translated and labelled with 35S-methionine (human (100% identical to mouse MmUbc7)) (UniProt P60604); assay: GST pull-down, Ube2G2 translated in reticulocyte lysate, 35S-Met
[2] = molecular target: Ube2G2/MmUbc7, in vitro translated and labelled with 35S-methionine (human (100% identical to mouse MmUbc7)) (UniProt P60604); assay: GST pull-down, Ube2G2 in vitro translated in rabbit reticulocyte lysate

SADERQRMLVQRKDELLQQARKRFLNKSSEDDAAS (peptide, not shown: a dimerising Fc or GST) [GST fusion of gp78 amino acids 574-608 (of SEQ ID NO:2)]
binding [1]: binds | binding [2]: binds
